Test results taken from the supplement of paper PMC4604168 (melanoma cell lines).
The list shows a part of the results. Single values are uncertain, as repeats are few or missing.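 The apoptosis fraction was the count of cleaved-PARP antibody-stained nuclei relative to all DNA-stained nuclei, imaged in 1,536-well plates. Screening doses were set so most cells survived, and baseline and induced cleaved-PARP levels vary greatly across cell lines.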

Experiments:
Test in all cases: cleaved PARP positive nuclei fraction relative to DMSO control; melanoma cells; higher = more apoptosis
Conditions in all cases: library dose: low library concentration; 72 h
[1] = test system: MZ2-MEL
[2] = test system: MeWo
[3] = test system: RPMI7951
[4] = test system: RVH-421
[5] = test system: SkMel28
[6] = test system: SkMel2
[7] = test system: SkMel30
[8] = test system: SkMel5
[9] = test system: UACC257
[10] = test system: UACC62
[11] = test system: WM115
[12] = test system: WM1716
[13] = test system: WM1745
[14] = test system: WM3526
[15] = test system: WM3619
[16] = test system: WM451Lu

| Structure (SMILES) | cleaved PARP positive nuclei fraction [1] | cleaved PARP positive nuclei fraction [2] | cleaved PARP positive nuclei fraction [3] | cleaved PARP positive nuclei fraction [4] | cleaved PARP positive nuclei fraction [5] | cleaved PARP positive nuclei fraction [6] | cleaved PARP positive nuclei fraction [7] | cleaved PARP positive nuclei fraction [8] | cleaved PARP positive nuclei fraction [9] | cleaved PARP positive nuclei fraction [10] | cleaved PARP positive nuclei fraction [11] | cleaved PARP positive nuclei fraction [12] | cleaved PARP positive nuclei fraction [13] | cleaved PARP positive nuclei fraction [14] | cleaved PARP positive nuclei fraction [15] | cleaved PARP positive nuclei fraction [16] |
| --- | --- | --- | --- | --- | --- | --- | --- | --- | --- | --- | --- | --- | --- | --- | --- | --- |
| CC(C)C[C@H](NC(=O)[C@H](Cc1ccccc1)NC(=O)c1cnccn1)B(O)O [Bortezomib] + O=C1NC(=O)/C(=C/c2ccc(-c3ccc(F)cc3O)o2)S1 [AS252424] (first compound 0.001 µM, partner dose 1 µM) | 201% | 63.4% | 138% | 341% | 118% | 44.8% | 136% | 79% | 150% | 134% | 114% | 119% | 155% | 43.7% | 422% | 154% |
| O=C(O)[C@@H]1[O][Sb](=[O])([O][Sb]2(=[O])[O][C@H]([C@H](O)CO)[C@H](O)[C@H](C(=O)O)[O]2)[O][C@H]([C@H](O)CO)[C@@H]1O (stereo not given in full) [stibogluconate] + NCC(=O)Nc1ccc(-n2nc(C(F)(F)F)cc2-c2ccc3c(ccc4ccccc43)c2)cc1 [OSU03012] (first compound 2 µM, partner dose 1 µM) | 72.5% | 224% | 58.8% | 94.9% | 134% | 95.4% | 99.8% | 150% | 49.3% | 67.2% | 148% | 94.7% | 90.8% | 167% | 94.3% | 271% |
| C[C@@H](Oc1cc(-c2cnn(C3CCNCC3)c2)cnc1N)c1c(Cl)ccc(F)c1Cl [Crizotinib] + O=C1NC(=O)/C(=C/c2ccc(-c3ccc(F)cc3O)o2)S1 [AS252424] (first compound 0.2 µM, partner dose 1 µM) | 95.3% | 108% | 63.6% | 64.8% | 148% | 98.3% | 74.8% | 76.9% | 113% | 52.1% | 112% | 80.3% | 81.5% | 73.6% | 111% | 64% |
| Cc1cc(Nc2cc(N3CCN(C)CC3)nc(/C=C/c3ccccc3)n2)n[nH]1 + CC1(C)NC(=O)N(c2ccc([N+](=O)[O-])c(C(F)(F)F)c2)C1=O [nilutamide] (first compound 0.04 µM, partner dose 1 µM) | 221% | 35.8% | 155% | 109% | 63.2% | 108% | 62.3% | 80.1% | 119% | 30.6% | 114% | 21.1% | 113% | 62.3% | 95% | 136% |
| CCCS(=O)(=O)Nc1ccc(F)c(C(=O)c2c[nH]c3ncc(Cl)cc23)c1F + c1cc(-c2cnn3cc(-c4ccc(OCCN5CCCCC5)cc4)cnc23)ccn1 [Dorsomorphin] (first compound 0.08 µM, partner dose 0.4 µM) | 52.7% | 78% | 27.9% | 135% | 281% | 18.7% | 329% | 69% | 107% | 155% | 54.3% | 91.6% | 82% | 233% | 121% | 34.8% |
| CS(=O)(=O)CCNCc1ccc(-c2ccc3ncnc(Nc4ccc(OCc5cccc(F)c5)c(Cl)c4)c3c2)o1 [lapatinib] + Cc1ccc(NC(=O)c2cccc(N(C)C)c2)cc1NC(=O)c1ccc(O)cc1 [ZM336372] (first compound 0.8 µM, partner dose 2 µM) | 170% | 24.2% | 158% | 36.4% | 172% | 100% | 88.3% | 218% | 191% | 52.7% | 65.6% | 108% | 101% | 56.5% | 103% | 105% |
| Nc1ncn([C@H]2C[C@H](O)[C@@H](CO)O2)c(=O)n1 [decitabine] + NCC(=O)Nc1ccc(-n2nc(C(F)(F)F)cc2-c2ccc3c(ccc4ccccc43)c2)cc1 [OSU03012] (first compound 0.1 µM, partner dose 1 µM) | 76.6% | 127% | 134% | 73.9% | 141% | 113% | 217% | 174% | 120% | 74.3% | 49.7% | 51.5% | 94.3% | 104% | 84.2% | 189% |
| C[C@@H](Oc1cc(-c2cnn(C3CCNCC3)c2)cnc1N)c1c(Cl)ccc(F)c1Cl [Crizotinib] + COc1cc2ncnc(Nc3ccc(Oc4ccccc4)cc3)c2cc1OC [SrcI1] (first compound 0.2 µM, partner dose 2 µM) | 66.6% | 62.4% | 49.1% | 23.7% | 119% | 120% | 231% | 296% | 50.9% | 64.2% | 51.3% | 51.9% | 95% | 37.3% | 121% | 61.5% |
| Cc1cc(Nc2cc(N3CCN(C)CC3)nc(/C=C/c3ccccc3)n2)n[nH]1 + Oc1cc(-c2nc(-c3ccccc3)[nH]c2-c2ccncc2)ccc1Cl [L779450] (first compound 0.04 µM, partner dose 0.2 µM) | 95.2% | 29.4% | 75.4% | 132% | 257% | 174% | 40.6% | 148% | 140% | 374% | 125% | 87.1% | 102% | 111% | 110% | 69.1% |
| C[C@@H](Oc1cc(-c2cnn(C3CCNCC3)c2)cnc1N)c1c(Cl)ccc(F)c1Cl [Crizotinib] + CC(C)CCN1c2nc(Nc3cc(F)c(O)c(F)c3)ncc2N(C)C(=O)C1C [BID1870] (first compound 0.2 µM, partner dose 0.2 µM) | 140% | 128% | 150% | 222% | 138% | 83.9% | 15.9% | 456% | 116% | 107% | 163% | 86.3% | 83.8% | 57.6% | 83.6% | 103% |
| O=C(O)[C@@H]1[O][Sb](=[O])([O][Sb]2(=[O])[O][C@H]([C@H](O)CO)[C@H](O)[C@H](C(=O)O)[O]2)[O][C@H]([C@H](O)CO)[C@@H]1O (stereo not given in full) [stibogluconate] + Cc1cc([N+](=O)[O-])ccc1NS(=O)(=O)c1cc(Cl)ccc1Cl [FH535] (first compound 2 µM, partner dose 1 µM) | 105% | 20.5% | 116% | 93.6% | 115% | 95.4% | 71.9% | 91.4% | 94% | 97.2% | 129% | 109% | 102% | 63.8% | 85.6% | 136% |
| C[C@@H](Oc1cc(-c2cnn(C3CCNCC3)c2)cnc1N)c1c(Cl)ccc(F)c1Cl [Crizotinib] + Cn1cc(/C=C2\C(=O)Nc3cccnc32)c2ccccc21 [GW441756] (first compound 0.2 µM, partner dose 0.4 µM) | 88.6% | 83.8% | 181% | 66.1% | 227% | 46.9% | 49.1% | 80.9% | 36.9% | 130% | 35.9% | 110% | 83.7% | 34.6% | 79.9% | 98.9% |
| O=C(O)c1ccc2c(c1)nc(Nc1cccc(Cl)c1)c1ccncc12 + COC(=O)c1sccc1S(=O)(=O)Nc1ccc(Nc2ccccc2)cc1OC [GSK0660] (first compound 0.4 µM, partner dose 1 µM) | 59.7% | 82.6% | 73.1% | 103% | 101% | 122% | 78.7% | 61.2% | 203% | 62.3% | 186% | 153% | 105% | 81.8% | 83.8% | 89.5% |
| CNC(=O)c1cc(Oc2ccc(NC(=O)Nc3ccc(Cl)c(C(F)(F)F)c3)cc2)ccn1 [sorafenib] + CN(NC(=O)CC(=O)NN(C)C(=S)c1ccccc1)C(=S)c1ccccc1 [STA4783] (first compound 0.4 µM, partner dose 0.006 µM) | 292% | 169% | 51.3% | 51.3% | 130% | 70% | 59.2% | 296% | 123% | 61.6% | 79.7% | 240% | 429% | 129% | 213% | 136% |
| O=C(O)c1ccc2c(c1)nc(Nc1cccc(Cl)c1)c1ccncc12 + OCCn1cc(-c2cnc3nnn(Cc4ccc5ncccc5c4)c3n2)cn1 [PF04217903] (first compound 0.4 µM, partner dose 1 µM) | 119% | 82.8% | 60.9% | 99% | 147% | 159% | 141% | 42.9% | 110% | 126% | 140% | 226% | 102% | 81.9% | 83.6% | 62.5% |

In a second layout: results already given
Structure (SMILES)	cleaved PARP positive nuclei fraction [1]	cleaved PARP positive nuclei fraction [2]	cleaved PARP positive nuclei fraction [3]	cleaved PARP positive nuclei fraction [4]	cleaved PARP positive nuclei fraction [5]	cleaved PARP positive nuclei fraction [6]	cleaved PARP positive nuclei fraction [7]	cleaved PARP positive nuclei fraction [8]	cleaved PARP positive nuclei fraction [9]	cleaved PARP positive nuclei fraction [10]	cleaved PARP positive nuclei fraction [11]	cleaved PARP positive nuclei fraction [12]	cleaved PARP positive nuclei fraction [13]	cleaved PARP positive nuclei fraction [14]	cleaved PARP positive nuclei fraction [15]	cleaved PARP positive nuclei fraction [16]
C[C@@H](Oc1cc(-c2cnn(C3CCNCC3)c2)cnc1N)c1c(Cl)ccc(F)c1Cl [Crizotinib] + Cn1cc(/C=C2\C(=O)Nc3cccnc32)c2ccccc21 [GW441756] (first compound 0.2 µM, partner dose 0.4 µM)	88.6%	83.8%	181%	66.1%	227%	46.9%	49.1%	80.9%	36.9%	130%	35.9%	110%	83.7%	34.6%	79.9%	98.9%
O=C(O)c1ccc2c(c1)nc(Nc1cccc(Cl)c1)c1ccncc12 + COC(=O)c1sccc1S(=O)(=O)Nc1ccc(Nc2ccccc2)cc1OC [GSK0660] (first compound 0.4 µM, partner dose 1 µM)	59.7%	82.6%	73.1%	103%	101%	122%	78.7%	61.2%	203%	62.3%	186%	153%	105%	81.8%	83.8%	89.5%
CNC(=O)c1cc(Oc2ccc(NC(=O)Nc3ccc(Cl)c(C(F)(F)F)c3)cc2)ccn1 [sorafenib] + CN(NC(=O)CC(=O)NN(C)C(=S)c1ccccc1)C(=S)c1ccccc1 [STA4783] (first compound 0.4 µM, partner dose 0.006 µM)	292%	169%	51.3%	51.3%	130%	70%	59.2%	296%	123%	61.6%	79.7%	240%	429%	129%	213%	136%
O=C(O)c1ccc2c(c1)nc(Nc1cccc(Cl)c1)c1ccncc12 + OCCn1cc(-c2cnc3nnn(Cc4ccc5ncccc5c4)c3n2)cn1 [PF04217903] (first compound 0.4 µM, partner dose 1 µM)	119%	82.8%	60.9%	99%	147%	159%	141%	42.9%	110%	126%	140%	226%	102%	81.9%	83.6%	62.5%
